Reference: the supplement of paper PMC12067093, “Discovery and optimisation of a covalent ligand for TRIM25 and its application to targeted protein ubiquitination” (Chemical Science, 2025)
The list shows a part of the results.

These targets were tested with CC1Cc2ccccc2N1C(=O)C1CCCN(C1)C(=O)CCl (mixture of isomers) [TRIM25 ligand 11 (diastereomer mixture)] (assay: probe-labelled cysteine peptide fold change vs DMSO (competition) (log2 fold change); higher = less target engagement (more negative = stronger competition)). Details: 10 µM; THP-1; incubation time: 4 h.
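Also: competitive chemoproteomic profiling in live THP-1 cells with an iodoacetamide desthiobiotin (IA-DTB) probe, comparing probe-labelled peptide intensities in compound-treated cells against DMSO-treated controls.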

| Target | probe-labelled cysteine peptide fold change |
| --- | --- |
| COPG1_Q9Y678_440_ETGLSHLCEFIEDCEFTVLATR (UniProt Q9Y678) | 0.0738 |
| COG5_Q9UP83_64_ELLQDGCYSDFLNEDFDVK (UniProt Q9UP83) | 0.0498 |
| COQ7_Q99807_137_EGAMACTVAVEESIAHHYNNQIR (UniProt Q99807) | -0.0333 |
| COPE_O14579_225_CSPTLLLLNGQAACHMAQGR (UniProt O14579) | 0.133 |
| CNPY2_Q9Y2B0_171_TDLCDHALHISHDEL (UniProt Q9Y2B0) | -0.1 |
| COPB2_P35606_234_TCVQTLEGHAQNVSCASFHPELPIIITGSEDGTVR (UniProt P35606) | 0.132 |
| CNBP_P62633_101_EQCCYNCGKPGHLAR (UniProt P62633) | -0.257 |
| COPS7B_Q9H9Q2_240_ECPPHAEQR (UniProt Q9H9Q2) | -0.0885 |
| COPG2_Q9UBF2_258_ETEDGHESPLFDFIESCLR (UniProt Q9UBF2) | 0.145 |
| CMPK2_Q5EBM0_40_RFVLELPDCTLAHFALGADAPGDADAPDPR (UniProt Q5EBM0) | -0.0614 |
| CNPY2_Q9Y2B0_28_SQDLHCGACR (UniProt Q9Y2B0) | 0.0309 |
| CNBP_P62633_122_CYSCGEFGHIQK (UniProt P62633) | 0.0146 |
| COG8_Q96MW5_595_LEPAGPACPEGGR (UniProt Q96MW5) | 0.133 |
| CMAS_Q8NFW8_394_VGLSGAPADACSTAQK (UniProt Q8NFW8) | 0.076 |
| COPB1_P53618_623_VLSECSPLMNDIFNK (UniProt P53618) | -0.0798 |
| COPB2_P35606_681+689_CQFGLAQECLHHAQDYGGLLLLATASGNANMVNK (UniProt P35606) | 0.0207 |
| COPA_P53621_522_KLDALCNIHENIR (UniProt P53621) | 0.00658 |
| CNPY3_Q9BT09_194_NHQEEDLTEFLCANHVLK (UniProt Q9BT09) | -0.0334 |
| COG1_Q8WTW3_87_ATDQYCAR (UniProt Q8WTW3) | 0.00729 |

| Target | probe-labelled cysteine peptide fold change |
| --- | --- |
| CNOT1_A5YKK6_1287_FEIEVLCK (UniProt A5YKK6) | 0.257 |
| CNPY3_Q9BT09_206_DTSCLAEQWSGKK (UniProt Q9BT09) | -0.163 |
| COA7_Q96BR5_187_ACDLGHIWACANASR (UniProt Q96BR5) | -0.137 |
| COPA_P53621_453_VQVPNCDEIFYAGTGNLLLR (UniProt P53621) | -0.00047 |
| CNBP_P62633_97+98+101_EQCCYNCGKPGHLAR (UniProt P62633) | -0.122 |
| COL4A3BP_Q9Y5P4_84_AVITPHDFDECR (UniProt Q9Y5P4) | 0.236 |
| COPG2_Q9UBF2_440_EAGLAHLCEFIEDCEHTVLATK (UniProt Q9UBF2) | 0.0037 |
| COPB1_P53618_284_AAAQCYIDLIIK (UniProt P53618) | 0.0398 |
| COMMD4_Q9H0A8_34_LLCSQVLK (UniProt Q9H0A8) | 0.00723 |
| CNTRL_Q7Z7A1_1535_DSDFQCLSK (UniProt Q7Z7A1) | -0.0717 |
| COA7_Q96BR5_24_SFLENMEVECNYHCYHEK (UniProt Q96BR5) | -0.12 |
| COPS4_Q9BT78_232_HALHCTILASAGQQR (UniProt Q9BT78) | 0.0512 |
| COPG1_Q9Y678_516_CVMDDDNEVRDR (UniProt Q9Y678) | 0.0281 |
| COG2_Q14746_36_EDFDVDHFVSDCR (UniProt Q14746) | 0.104 |
| COPA_P53621_254_GHYNNVSCAVFHPR (UniProt P53621) | 0.00572 |
| CNOT1_A5YKK6_1457_NLTAGMAMITCR (UniProt A5YKK6) | 0.02 |
| CNBP_P62633_97_EQCCYNCGK (UniProt P62633) | 0.199 |
| CMTR1_Q8N1G2_504_SNESHCSLQIK (UniProt Q8N1G2) | 0.12 |

Same assay, conditions: 50 µM; THP-1; incubation time: 4 h

| Target | probe-labelled cysteine peptide fold change |
| --- | --- |
| COPG1_Q9Y678_440_ETGLSHLCEFIEDCEFTVLATR (UniProt Q9Y678) | 0.0372 |
| COG5_Q9UP83_64_ELLQDGCYSDFLNEDFDVK (UniProt Q9UP83) | 0.00309 |
| COQ7_Q99807_137_EGAMACTVAVEESIAHHYNNQIR (UniProt Q99807) | -0.065 |
| COPE_O14579_225_CSPTLLLLNGQAACHMAQGR (UniProt O14579) | 0.171 |
| CNPY2_Q9Y2B0_171_TDLCDHALHISHDEL (UniProt Q9Y2B0) | -0.0705 |
| COPB2_P35606_234_TCVQTLEGHAQNVSCASFHPELPIIITGSEDGTVR (UniProt P35606) | -0.0309 |
| CNBP_P62633_101_EQCCYNCGKPGHLAR (UniProt P62633) | -0.15 |
| COPS7B_Q9H9Q2_240_ECPPHAEQR (UniProt Q9H9Q2) | -0.0229 |
| COPG2_Q9UBF2_258_ETEDGHESPLFDFIESCLR (UniProt Q9UBF2) | -0.0335 |
| CMPK2_Q5EBM0_40_RFVLELPDCTLAHFALGADAPGDADAPDPR (UniProt Q5EBM0) | -0.0684 |
| CNPY2_Q9Y2B0_28_SQDLHCGACR (UniProt Q9Y2B0) | 0.016 |
| CNBP_P62633_122_CYSCGEFGHIQK (UniProt P62633) | 0.0788 |
| COG8_Q96MW5_595_LEPAGPACPEGGR (UniProt Q96MW5) | 0.00286 |
| CMAS_Q8NFW8_394_VGLSGAPADACSTAQK (UniProt Q8NFW8) | 0.0854 |
| COPB1_P53618_623_VLSECSPLMNDIFNK (UniProt P53618) | 0.129 |
| COPB2_P35606_681+689_CQFGLAQECLHHAQDYGGLLLLATASGNANMVNK (UniProt P35606) | -0.194 |
| COPA_P53621_522_KLDALCNIHENIR (UniProt P53621) | 0.0112 |
| CNPY3_Q9BT09_194_NHQEEDLTEFLCANHVLK (UniProt Q9BT09) | -0.00404 |
| COG1_Q8WTW3_87_ATDQYCAR (UniProt Q8WTW3) | -0.0459 |

| Target | probe-labelled cysteine peptide fold change |
| --- | --- |
| CNOT1_A5YKK6_1287_FEIEVLCK (UniProt A5YKK6) | 0.325 |
| CNPY3_Q9BT09_206_DTSCLAEQWSGKK (UniProt Q9BT09) | -0.016 |
| COA7_Q96BR5_187_ACDLGHIWACANASR (UniProt Q96BR5) | -0.168 |
| COPA_P53621_453_VQVPNCDEIFYAGTGNLLLR (UniProt P53621) | -0.164 |
| CNBP_P62633_97+98+101_EQCCYNCGKPGHLAR (UniProt P62633) | -0.267 |
| COL4A3BP_Q9Y5P4_84_AVITPHDFDECR (UniProt Q9Y5P4) | 0.115 |
| COPG2_Q9UBF2_440_EAGLAHLCEFIEDCEHTVLATK (UniProt Q9UBF2) | 0.0795 |
| COPB1_P53618_284_AAAQCYIDLIIK (UniProt P53618) | 0.0921 |
| COMMD4_Q9H0A8_34_LLCSQVLK (UniProt Q9H0A8) | 0.0589 |
| CNTRL_Q7Z7A1_1535_DSDFQCLSK (UniProt Q7Z7A1) | -0.0901 |
| COA7_Q96BR5_24_SFLENMEVECNYHCYHEK (UniProt Q96BR5) | -0.238 |
| COPS4_Q9BT78_232_HALHCTILASAGQQR (UniProt Q9BT78) | 0.0666 |
| COPG1_Q9Y678_516_CVMDDDNEVRDR (UniProt Q9Y678) | 0.0553 |
| COG2_Q14746_36_EDFDVDHFVSDCR (UniProt Q14746) | 0.196 |
| COPA_P53621_254_GHYNNVSCAVFHPR (UniProt P53621) | -0.0672 |
| CNOT1_A5YKK6_1457_NLTAGMAMITCR (UniProt A5YKK6) | 0.106 |
| CNBP_P62633_97_EQCCYNCGK (UniProt P62633) | 0.323 |
| CMTR1_Q8N1G2_504_SNESHCSLQIK (UniProt Q8N1G2) | -0.202 |
